Consider three substances from publication PMC11336930.

Chains of the proteins cited; added tags and fusions are not shown.
UniProt P07355: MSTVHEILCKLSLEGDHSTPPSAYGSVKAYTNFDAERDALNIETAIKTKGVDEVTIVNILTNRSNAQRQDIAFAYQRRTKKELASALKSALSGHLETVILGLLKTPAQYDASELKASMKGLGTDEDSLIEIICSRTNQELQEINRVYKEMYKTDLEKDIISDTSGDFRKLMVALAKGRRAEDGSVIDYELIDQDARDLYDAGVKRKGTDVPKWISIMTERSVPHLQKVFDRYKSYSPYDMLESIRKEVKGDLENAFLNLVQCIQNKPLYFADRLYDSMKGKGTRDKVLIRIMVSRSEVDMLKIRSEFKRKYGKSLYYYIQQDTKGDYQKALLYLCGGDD
UniProt P07947: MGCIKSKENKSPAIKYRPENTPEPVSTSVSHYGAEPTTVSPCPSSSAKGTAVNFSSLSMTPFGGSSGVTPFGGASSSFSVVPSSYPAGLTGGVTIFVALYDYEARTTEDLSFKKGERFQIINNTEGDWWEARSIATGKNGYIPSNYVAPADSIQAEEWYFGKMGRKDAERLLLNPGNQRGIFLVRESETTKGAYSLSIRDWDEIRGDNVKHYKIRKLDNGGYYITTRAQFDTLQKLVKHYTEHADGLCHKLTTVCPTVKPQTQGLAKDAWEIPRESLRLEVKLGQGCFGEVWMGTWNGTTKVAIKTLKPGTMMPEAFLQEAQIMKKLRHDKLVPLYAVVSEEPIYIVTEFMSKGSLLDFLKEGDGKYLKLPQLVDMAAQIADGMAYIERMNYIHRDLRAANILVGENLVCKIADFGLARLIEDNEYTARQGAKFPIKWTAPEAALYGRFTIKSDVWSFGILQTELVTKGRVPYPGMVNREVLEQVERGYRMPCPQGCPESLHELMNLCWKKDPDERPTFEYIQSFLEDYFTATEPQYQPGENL
UniProt P60903: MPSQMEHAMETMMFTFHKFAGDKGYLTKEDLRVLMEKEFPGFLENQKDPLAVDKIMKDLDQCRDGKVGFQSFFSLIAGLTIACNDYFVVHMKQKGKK

Results are given in words; binding and its absence hold for the method and conditions named. Binding seen in cells or lysates may run through a third protein. Some entries that bind do so weakly or less than the wild type.

Assay [1] has as its target Annexin A2 (ANXA2) (human (endogenous in Cd-SV-HUC-1)) (UniProt P07355). Nature of the assay: co-IP; endogenous proteins in Cd‐SV‐HUC‐1 cells; also in cells transfected with siRNA against mtiRL (knockdown of the tsRNA).
The next assay deals with Flag‐ANXA2 (UniProt P07355). As to the kind of experiment: co-IP; exogenous co‐IP of GFP‐Yes1 and Flag‐ANXA2; cells not given.

As for “Yes proto‐oncogene 1 (Yes1) (from UniProt P07947 1-543) (enzyme)”, the binding result in assay [1] is “binds”. Same read-out and setting: for S100A10 (from UniProt P60903 1-97) the value was “binds”.

Consider “GFP‐Yes1 (from UniProt P07947 1-543) (enzyme)”, for which the binding result with Flag‐ANXA2 is recorded as “binds”.
